The target in this series is T1, RIG-I wild type (human) (UniProt O95786).
T1 sequence (looked up): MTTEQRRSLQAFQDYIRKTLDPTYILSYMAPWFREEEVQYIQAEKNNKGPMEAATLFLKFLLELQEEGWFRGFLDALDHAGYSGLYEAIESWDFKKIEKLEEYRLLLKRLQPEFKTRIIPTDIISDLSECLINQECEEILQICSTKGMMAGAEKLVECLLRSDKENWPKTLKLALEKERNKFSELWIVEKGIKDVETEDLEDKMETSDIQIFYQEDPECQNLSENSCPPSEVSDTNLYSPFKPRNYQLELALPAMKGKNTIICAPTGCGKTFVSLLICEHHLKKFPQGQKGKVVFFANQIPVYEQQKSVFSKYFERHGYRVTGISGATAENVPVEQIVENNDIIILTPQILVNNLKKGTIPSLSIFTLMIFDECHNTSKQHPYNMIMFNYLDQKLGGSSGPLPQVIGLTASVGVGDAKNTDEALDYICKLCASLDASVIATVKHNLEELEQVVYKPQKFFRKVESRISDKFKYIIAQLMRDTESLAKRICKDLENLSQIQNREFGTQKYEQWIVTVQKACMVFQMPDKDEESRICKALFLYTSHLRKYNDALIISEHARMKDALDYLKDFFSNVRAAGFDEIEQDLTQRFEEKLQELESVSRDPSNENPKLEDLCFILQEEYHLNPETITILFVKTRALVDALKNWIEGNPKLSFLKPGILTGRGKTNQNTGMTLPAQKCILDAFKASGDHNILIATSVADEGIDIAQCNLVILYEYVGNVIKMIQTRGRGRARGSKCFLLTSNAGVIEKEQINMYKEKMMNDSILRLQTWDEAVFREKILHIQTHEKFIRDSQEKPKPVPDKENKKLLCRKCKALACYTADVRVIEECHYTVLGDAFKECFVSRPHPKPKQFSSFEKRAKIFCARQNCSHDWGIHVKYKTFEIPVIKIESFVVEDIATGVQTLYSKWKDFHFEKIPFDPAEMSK
Kind of series: fluorescence anisotropy. The conditions noted are these: 5 mM ATP, 5 mM Mg2+, Fluorescence anisotropy: 25 mM HEPES pH 7, 50 mM KCl, 5 mM MgCl2, 1 mM DTT, 10 nM RNA, room temperature, recombinant protein, residues 1-925, protein details: N-terminal His-tag, label: 5'-Cy3. A general note: In fluorescence polarisation assays a small probe gives low polarisation when free and higher when bound to something large.

For at least one entry, the source does not settle the construct or the ends of the probe. A weaker result is weaker than the reference pair of the same experiment. Tags and fusion partners may be left off the protein sequences shown.

With “CCACCCGCCCCCCUAGUGAGGGGGGCGGGCC [Cy3-hpRNA (14mer stem hairpin)]”, the binding result is on record as “binds more weakly”.

Source of the values: publication PMC6086658, “Unified mechanisms for self-RNA recognition by RIG-I Singleton-Merten syndrome variants” (eLife, 2018).
